Record: PubChem BioAssay AID1259308 (NCATS, 2017)

Screen: 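Candidate targets for better recombinant protein yield in mammalian cells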 (primary screen)
Cells: human HEK293 embryonic kidney cells stably expressing firefly luciferase (HEK-CMV-Luc2-Hygro)
Reagents: single siRNA against human genes, 0.8 pmol siRNA per well
Duration: 72 h
Measured: 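Luciferase light (ONE-Glo) measured on one replicate plate set and viability (CellTiter-Glo) on the other, scaled to a negative control siRNA, with robust z-scores and luciferase per cell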
Direction: total luciferase, z-score: higher = more reporter protein produced
Rule for the call: 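Active when the median/MAD z-score for overall luciferase is greater than 3; a gene was taken forward for validation with new siRNAs if at least two of its three siRNAs passed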
Calls: active = raised luciferase; inactive = no rise
In all, the deposit lists about 59,000 reagents; shown is an unselected part. About 1,510 of them (2.6%) were called active. 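Calls use total luciferase alone and ignore viability, so some active siRNAs may act by altering cell number.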 Entries without a mark were called inactive. The numbers tell different reagents against one gene apart. Not all columns of the deposit are shown. No sequences are given here.

gene symbol	reagent no.	total luciferase, z-score
ZNF767P (GeneID 79970)	1	0.493
ZNF767P (GeneID 79970)	2	1.66
ZNF767P (GeneID 79970)	3	0.604
LINC01501 (GeneID 340515)	1	-0.392
LINC01501 (GeneID 340515)	2	0.656
LINC01501 (GeneID 340515)	3	-0.0144
DROSHA (GeneID 29102)	1	-0.282
DROSHA (GeneID 29102)	2	1.45
DROSHA (GeneID 29102)	3	0.189
RNPS1P1 (GeneID 643446)	1	0.68
RNPS1P1 (GeneID 643446)	2	-1.78
RNPS1P1 (GeneID 643446)	3	-2.32
FBXO5 (GeneID 26271)	1	1.08
FBXO5 (GeneID 26271)	2	-1.36
FBXO5 (GeneID 26271)	3	-0.112
COX8C (GeneID 341947)	1	-1.01
COX8C (GeneID 341947)	2	-0.141
COX8C (GeneID 341947)	3	-0.441
CLIP4 (GeneID 79745)	1	-0.557
CLIP4 (GeneID 79745)	2	-0.408
CLIP4 (GeneID 79745)	3	0.154
LOC728660 (GeneID 728660)	1	-1.35
LOC728660 (GeneID 728660)	2	-0.592
LOC728660 (GeneID 728660)	3	-0.012
